In publication PMC11405755:
No constants are given. Whether binding was seen depends on the method and setting. In cells and extracts the contact can be indirect. Some binding calls cover weakened binding; strength is not graded here.

T1: MCL-1 (mouse (endogenous in Hoxb8 macrophage progenitors from C56BL/6 bone marrow)), P97287
T1 chain: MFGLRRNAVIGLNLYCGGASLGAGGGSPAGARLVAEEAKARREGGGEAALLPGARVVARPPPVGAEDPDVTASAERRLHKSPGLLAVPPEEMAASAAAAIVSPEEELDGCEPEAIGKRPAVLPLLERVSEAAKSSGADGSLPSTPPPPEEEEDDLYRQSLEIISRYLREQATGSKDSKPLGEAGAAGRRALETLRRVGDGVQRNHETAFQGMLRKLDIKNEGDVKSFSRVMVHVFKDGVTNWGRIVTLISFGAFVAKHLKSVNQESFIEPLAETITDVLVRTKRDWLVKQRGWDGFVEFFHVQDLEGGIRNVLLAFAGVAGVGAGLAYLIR


Tests used:
[1] = target: T1, MCL-1 (mouse (endogenous in Hoxb8 …)); experiment: co-IP; MCL-1 precipitated from CHAPS lysates (flowthrough of the A1-IP) of macrophages differentiated for 7 days; cells untreated or treated with S63845 (10 µM) and/or LPS (1 µg/ml) for 6 h; blots for co-precipitated proteins; conditions: remark: other sources report otherwise
[2] = target: T1, MCL-1 (mouse (endogenous in Hoxb8 …)); experiment: co-IP; MCL-1 precipitated with antibody (clone Y37) and Protein G agarose from 1% CHAPS lysates of macrophage progenitors, 4 h at 4 °C; cells untreated or treated with S63845 (5 µM) and/or LPS (1 µg/ml) for 18 h, QVD-OPH (20 µM) in all samples; blots for co-precipitated proteins; conditions: remark: other sources report otherwise
[3] = target: MCL-1 (mouse (endogenous in Hoxb8 macrophage progenitors from C56BL/6 bone marrow)) (UniProt P97287); experiment: as above
[4] = target: MCL-1 (mouse (endogenous in Hoxb8 macrophage progenitors from C56BL/6 bone marrow)) (UniProt P97287); experiment: co-IP; MCL-1 precipitated from CHAPS lysates (flowthrough of the A1-IP) of macrophages differentiated for 7 days; cells untreated or treated with S63845 (10 µM) and/or LPS (1 µg/ml) for 6 h; blots for co-precipitated proteins

binding [1]	binding [2]	binding [3]	binding [4]	Binder
binds	binds	–	–	BIM, O54918 1-196 (protein) MAKQPSDVSSECDREGGQLQPAERPPQLRPGAPTSLQTEPQGNPDGEGDRCPHGSPQGPLAPPASPGPFATRSPLFIFVRRSSLLSRSSSGYFSFDTDRSPAPMSCDKSTQTPSPPCQAFNHYLSAMASIRQSQEEPEDLRPEIRIAQELRRIGDEFNETYTRRVFANDYREAEDHPQMVILQLLRFIFRLVWRRH
–	–	binds	–	BAK (protein, UniProt O08734 1-209) MASGQGPGPPKVGCDESPSPSEQQVAQDTEEVFRSYVFYLHQQEQETQGAAAPANPEMDNLPLEPNSILGQVGRQLALIGDDINRRYDTEFQNLLEQLQPTAGNAYELFTKIASSLFKSGISWGRVVALLGFGYRLALYVYQRGLTGFLGQVTCFLADIILHHYIARWIAQRGGWVAALNFRRDPILTVMVIFGVVLLGQFVVHRFFRS
–	–	binds	binds	NOXA (protein, UniProt Q9JM54 1-103) MPGRKARRNAPVNPTRAELPPEFAAQLRKIGDKVYCTWSAPDITVVLAQMPGKSQKSRMRSPSPTRVPADLKDECAQLRRIGDKVNLRQKLLNLISKLFNLVT
